{
  "sequences": {"note": "Sequences of proteins named here, by UniProt entry; tags and fusion partners are left off.", "UniProt Q6VVP7, entry or part of it": "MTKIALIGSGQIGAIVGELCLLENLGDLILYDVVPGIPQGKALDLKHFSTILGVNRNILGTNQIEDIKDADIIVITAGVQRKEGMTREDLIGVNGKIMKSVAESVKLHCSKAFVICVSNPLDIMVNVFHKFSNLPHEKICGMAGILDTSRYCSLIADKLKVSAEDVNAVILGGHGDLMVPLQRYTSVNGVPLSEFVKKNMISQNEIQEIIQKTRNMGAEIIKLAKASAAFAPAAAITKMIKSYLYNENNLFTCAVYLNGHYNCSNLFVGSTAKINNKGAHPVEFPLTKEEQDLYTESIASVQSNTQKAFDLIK"},
  "source": "paper PMC8355244",
  "about": "“A fragment-based approach identifies an allosteric pocket that impacts malate dehydrogenase activity” (Communications Biology, 2021)",
  "target": "T1, PfMDH (Plasmodium falciparum, UniProt Q6VVP7)",
  "T1 construct": "The full-length WT PfMDH gene was cloned into pETM-13; made in house; host or cells: E. coli Rosetta 2 (DE3) pLysS",
  "experiment": "Thermal shift assay (TSA)",
  "format": "binding",
  "details": "for TSA melting curve raw signal: triplicate columns; for TSA melting curve raw fluorescence signal: three replicate columns",
  "experimental": "The TSA experiment was conducted in a BioRad CSX 96 (Biorad). Each reaction consisted of 1 mM of compound (100 mM stock in 100% (v/v) DMSO) and 10 μM PfMDH in 100 mM Na–phosphate buffer pH 7.4, 400 mM NaCl, and 10× Sypro Orange (Invitrogen) for a total volume of 100 μl. Control experiments were performed with 1% (v/v) DMSO. Inflection points were determined using BioRad CFX96™ control software. Generally, a temperature increase of over 1 °C is interpreted as a result of the stabilization of the protein-ligand interaction. On the contrary, a negative shift is considered a destabilization caused by the fragment.",
  "note": "Several values for one entry are separate records, joined by “and”; a condition that tells them apart may be missing. Equal entries are not always repeated. Further values from the same series stand in other lists.",
  "data": [
    {"smiles": "CC(C)c1ccc(-c2csc(N)n2)cc1", "note": "[4PA-iPr]", "values": [
      {"measurement": "TSA melting curve raw signal", "setting": "Temperature 25.5", "result": "8953.812 and 9615.673 and 6410.499"},
      {"measurement": "TSA melting curve raw signal", "setting": "Temperature 26", "result": "8913.071 and 9583.729 and 6382.814"},
      {"measurement": "TSA melting curve raw signal", "setting": "Temperature 26.5", "result": "8872.33 and 9551.785 and 6355.128"},
      {"measurement": "TSA melting curve raw signal", "setting": "Temperature 27", "result": "8831.589 and 9519.841 and 6327.443"},
      {"measurement": "TSA melting curve raw signal", "setting": "Temperature 27.5", "result": "8790.847 and 9487.897 and 6299.757"},
      {"measurement": "TSA melting curve raw signal", "setting": "Temperature 28", "result": "8750.106 and 9455.953 and 6272.072"},
      {"measurement": "TSA melting curve raw signal", "setting": "Temperature 44.5", "result": "7813.142 and 5547.261"},
      {"measurement": "TSA melting curve raw signal", "setting": "Temperature 45", "result": "7295.721 and 7766.885 and 5548.777"},
      {"measurement": "TSA melting curve raw signal", "setting": "Temperature 45.5", "result": "7254.178 and 7721.364 and 5552.364"},
      {"measurement": "TSA melting curve raw signal", "setting": "Temperature 46", "result": "7213.441 and 7676.718 and 5557.839"},
      {"measurement": "TSA melting curve raw signal", "setting": "Temperature 46.5", "result": "7173.35 and 7633.145 and 5565.544"},
      {"measurement": "TSA melting curve raw signal", "setting": "Temperature 47", "result": "7134.4 and 7590.836 and 5575.27"},
      {"measurement": "TSA melting curve raw signal", "setting": "Temperature 47.5", "result": "7096.606 and 7549.647 and 5587.314"},
      {"measurement": "TSA melting curve raw signal", "setting": "Temperature 48", "result": "7060.883 and 7509.799 and 5602.396"},
      {"measurement": "TSA melting curve raw signal", "setting": "Temperature 48.5", "result": "7027.134 and 7471.571 and 5620.657"},
      {"measurement": "TSA melting curve raw signal", "setting": "Temperature 49", "result": "6995.64 and 7436.006 and 5642.418"},
      {"measurement": "TSA melting curve raw signal", "setting": "Temperature 49.5", "result": "6966.531 and 7403.371 and 5667.989"},
      {"measurement": "TSA melting curve raw signal", "setting": "Temperature 50", "result": "6939.992 and 7373.974 and 5697.365"},
      {"measurement": "TSA melting curve raw signal", "setting": "Temperature 50.5", "result": "6915.74 and 7348.252 and 5730.298"},
      {"measurement": "TSA melting curve raw signal", "setting": "Temperature 51", "result": "6894.711 and 7327.048 and 5767.652"},
      {"measurement": "TSA melting curve raw signal", "setting": "Temperature 51.5", "result": "6877.353 and 7310.078 and 5809.779"},
      {"measurement": "TSA melting curve raw signal", "setting": "Temperature 52", "result": "6863.434 and 7298.022 and 5857.055"},
      {"measurement": "TSA melting curve raw signal", "setting": "Temperature 52.5", "result": "6853.613 and 7291.416 and 5910.05"},
      {"measurement": "TSA melting curve raw signal", "setting": "Temperature 53", "result": "6848.363 and 7290.403 and 5969.014"},
      {"measurement": "TSA melting curve raw signal", "setting": "Temperature 53.5", "result": "6846.76 and 7294.591 and 6033.413"},
      {"measurement": "TSA melting curve raw signal", "setting": "Temperature 54", "result": "6848.405 and 7304.165 and 6102.999"},
      {"measurement": "TSA melting curve raw signal", "setting": "Temperature 54.5", "result": "6853.206 and 7318.041 and 6177.192"},
      {"measurement": "TSA melting curve raw signal", "setting": "Temperature 55", "result": "6859.987 and 7335.374 and 6254.865"},
      {"measurement": "TSA melting curve raw signal", "setting": "Temperature 55.5", "result": "6867.57 and 7355.488 and 6334.894"},
      {"measurement": "TSA melting curve raw signal", "setting": "Temperature 56", "result": "6875.739 and 7377.33 and 6416.393"},
      {"measurement": "TSA melting curve raw signal", "setting": "Temperature 56.5", "result": "6883.298 and 7399.335 and 6496.832"},
      {"measurement": "TSA melting curve raw signal", "setting": "Temperature 57", "result": "6889.403 and 7420.875 and 6574.472"},
      {"measurement": "TSA melting curve raw signal", "setting": "Temperature 57.5", "result": "6893.178 and 7440.745 and 6647.471"},
      {"measurement": "TSA melting curve raw signal", "setting": "Temperature 58", "result": "6893.545 and 7457.145 and 6713.44"},
      {"measurement": "TSA melting curve raw signal", "setting": "Temperature 58.5", "result": "6889.516 and 7468.876 and 6770.17"},
      {"measurement": "TSA melting curve raw signal", "setting": "Temperature 59", "result": "6880.874 and 7475.253 and 6816.856"},
      {"measurement": "TSA melting curve raw signal", "setting": "Temperature 59.5", "result": "6866.783 and 7475.114 and 6852.332"},
      {"measurement": "TSA melting curve raw signal", "setting": "Temperature 60", "result": "6847.162 and 7468.071 and 6875.746"},
      {"measurement": "TSA melting curve raw signal", "setting": "Temperature 60.5", "result": "6822.416 and 7454.024 and 6887.316"},
      {"measurement": "TSA melting curve raw signal", "setting": "Temperature 61", "result": "6792.202 and 7433.018 and 6887.429"},
      {"measurement": "TSA melting curve raw signal", "setting": "Temperature 61.5", "result": "6756.922 and 7405.268 and 6876.736"},
      {"measurement": "TSA melting curve raw signal", "setting": "Temperature 62", "result": "6717.488 and 7371.773 and 6856.679"},
      {"measurement": "TSA melting curve raw signal", "setting": "Temperature 62.5", "result": "6674.467 and 7333.182 and 6828.949"},
      {"measurement": "TSA melting curve raw signal", "setting": "Temperature 63", "result": "6628.562 and 7290.503 and 6795.364"},
      {"measurement": "TSA melting curve raw signal", "setting": "Temperature 63.5", "result": "6580.985 and 7245.03 and 6757.268"},
      {"measurement": "TSA melting curve raw signal", "setting": "Temperature 64", "result": "6532.41 and 7197.285 and 6716.291"},
      {"measurement": "TSA melting curve raw signal", "setting": "Temperature 64.5", "result": "6482.924 and 7147.845 and 6672.961"},
      {"measurement": "TSA melting curve raw signal", "setting": "Temperature 65", "result": "6432.938 and 7097.141 and 6628.112"},
      {"measurement": "TSA melting curve raw fluorescence signal", "setting": "Temperature 65.5", "result": "6382.678 and 7045.752 and 6582.028"},
      {"measurement": "TSA melting curve raw fluorescence signal", "setting": "Temperature 66", "result": "6332.399 and 6993.517 and 6535.021"},
      {"measurement": "TSA melting curve raw fluorescence signal", "setting": "Temperature 66.5", "result": "6281.848 and 6941.307 and 6487.281"},
      {"measurement": "TSA melting curve raw fluorescence signal", "setting": "Temperature 67", "result": "6231.507 and 6889.03 and 6439.431"},
      {"measurement": "TSA melting curve raw fluorescence signal", "setting": "Temperature 67.5", "result": "6181.829 and 6836.712 and 6391.405"},
      {"measurement": "TSA melting curve raw fluorescence signal", "setting": "Temperature 68", "result": "6132.792 and 6784.379 and 6343.501"},
      {"measurement": "TSA melting curve raw fluorescence signal", "setting": "Temperature 68.5", "result": "6084.495 and 6732.153 and 6296.56"},
      {"measurement": "TSA melting curve raw fluorescence signal", "setting": "Temperature 69", "result": "6036.993 and 6679.716 and 6250.4"},
      {"measurement": "TSA melting curve raw fluorescence signal", "setting": "Temperature 69.5", "result": "5990.041 and 6626.622 and 6204.816"},
      {"measurement": "TSA melting curve raw fluorescence signal", "setting": "Temperature 70", "result": "5942.967 and 6573.345 and 6160.011"},
      {"measurement": "TSA melting curve raw fluorescence signal", "setting": "Temperature 70.5", "result": "5895.779 and 6519.831 and 6116.266"},
      {"measurement": "TSA melting curve raw fluorescence signal", "setting": "Temperature 71", "result": "5848.265 and 6466.13 and 6073.467"},
      {"measurement": "TSA melting curve raw fluorescence signal", "setting": "Temperature 71.5", "result": "5800.483 and 6412.157 and 6032.092"},
      {"measurement": "TSA melting curve raw fluorescence signal", "setting": "Temperature 72", "result": "5752.971 and 6358.991 and 5992.542"},
      {"measurement": "TSA melting curve raw fluorescence signal", "setting": "Temperature 72.5", "result": "5705.872 and 6306.415 and 5955.226"},
      {"measurement": "TSA melting curve raw fluorescence signal", "setting": "Temperature 73", "result": "5659.486 and 6254.351 and 5919.738"},
      {"measurement": "TSA melting curve raw fluorescence signal", "setting": "Temperature 90", "result": "5193.688 and 4738.287"},
      {"measurement": "TSA melting curve raw fluorescence signal", "setting": "Temperature 90.5", "result": "4670.141 and 5159.996 and 4698.069"},
      {"measurement": "TSA melting curve raw fluorescence signal", "setting": "Temperature 91", "result": "4642.19 and 5126.709 and 4658.778"},
      {"measurement": "TSA melting curve raw fluorescence signal", "setting": "Temperature 91.5", "result": "4614.16 and 5094.123 and 4620.311"},
      {"measurement": "TSA melting curve raw fluorescence signal", "setting": "Temperature 92", "result": "4586.176 and 5061.91 and 4582.446"},
      {"measurement": "TSA melting curve raw fluorescence signal", "setting": "Temperature 92.5", "result": "4557.856 and 5030.347 and 4545.343"},
      {"measurement": "TSA melting curve raw fluorescence signal", "setting": "Temperature 93", "result": "4529.4 and 4999.124 and 4508.199"},
      {"measurement": "TSA melting curve raw fluorescence signal", "setting": "Temperature 93.5", "result": "4500.492 and 4967.515 and 4470.766"},
      {"measurement": "TSA melting curve raw fluorescence signal", "setting": "Temperature 94", "result": "4471.078 and 4935.782 and 4433.574"},
      {"measurement": "TSA melting curve raw fluorescence signal", "setting": "Temperature 94.5", "result": "4441.637 and 4904.019 and 4396.291"},
      {"measurement": "TSA melting curve raw fluorescence signal", "setting": "Temperature 95", "result": "4411.095 and 4872.082 and 4359.492"}
    ]}
  ]
}
